This is one part of the list.
Molecular target: OsWRKY34 (Oryza sativa, UniProt Q0JBA9 1-250)
Test: protein-binding microarray (RPBM); PBS, 2% BSA, 51.3 ng/ul salmon testes DNA, 50 uM zinc acetate, 200 nM TF, 25 C, 1 h; high values mean tight binding
Details: protein: recombinant; tags: N-terminal polyhistidine and DsRed monomer fusion (pET32a); label: CyDye5-dUTP incorporated in the synthesized complementary strand; 3' TTTTT single-stranded linker to array surface; dsDNA, one strand shown
In short: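 Binding signal here means per-feature fluorescence intensity in arbitrary units. The values were read on an Axon 4000B scanner after a custom Agilent array, double-stranded by primer extension with Cy5-dUTP, was incubated with 200 nM protein at 25 °C for 1 h in PBS with 2% BSA, salmon testes DNA and 50 µM zinc acetate, then washed. The proteins were transcription factors with an N-terminal polyhistidine tag and DsRed, expressed in E. coli BL21-CodonPlus and purified on Ni–NTA.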

Sequences of proteins named here, by UniProt entry; tags and fusion partners are left off.
UniProt Q0JBA9, entry or part of it: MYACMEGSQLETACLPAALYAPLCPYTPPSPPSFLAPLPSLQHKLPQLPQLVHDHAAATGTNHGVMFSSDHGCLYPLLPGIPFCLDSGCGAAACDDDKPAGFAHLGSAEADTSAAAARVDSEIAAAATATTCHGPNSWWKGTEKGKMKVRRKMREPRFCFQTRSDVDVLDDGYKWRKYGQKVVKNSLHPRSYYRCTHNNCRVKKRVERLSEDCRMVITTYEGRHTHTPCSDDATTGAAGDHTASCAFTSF

Sequence | binding signal
CCCACCACTGCGAGAACCAAACAGATCGAGATACCTCTTTCGGAGTCACCTAGTGCAG | 9150 fluorescence intensity (a.u.)
GTTGTGTGTGTATGATAGGTTGATGTGATGGAAAAGGACCCGGAGTCACCTAGTGCAG | 9360 fluorescence intensity (a.u.)
CTCAAAAACTCTGTGCTTTCAAGGCATTTTCATTAGCGCCCGGAGTCACCTAGTGCAG | 8040 fluorescence intensity (a.u.)
TGTTCAGTACTACTTATATTTTGTTTCTTTTTACCGAGAACGGAGTCACCTAGTGCAG | 12000 fluorescence intensity (a.u.)
CCGTTTTTCATGTCAGCTTGCCGCCCTAGAGGTGGGCGGCCGGAGTCACCTAGTGCAG | 13800 fluorescence intensity (a.u.)
AATCAAATGCACATCATCAGTCATCACGTATTCACTTACACGGAGTCACCTAGTGCAG | 8230 fluorescence intensity (a.u.)
TGCACTCTGATCCGTTCGATTTTGCAGGGGAATTATCTGTCGGAGTCACCTAGTGCAG | 10600 fluorescence intensity (a.u.)
TGATCCCAGGTAGTATAATTATCTTGAATACTTGATTTTACGGAGTCACCTAGTGCAG | 8400 fluorescence intensity (a.u.)
CTCTCTCTCTCTTTGCACTACATTCTTGAATTCACAACCTCGGAGTCACCTAGTGCAG | 8840 fluorescence intensity (a.u.)
GTAAATTTGTTCTTGCTTTTCTACACTTTTTTTTTTGAACCGGAGTCACCTAGTGCAG | 9140 fluorescence intensity (a.u.)
TTGGGGTGGGGATAAGGCCGGTACCGGAGGCATGCCACATCGGAGTCACCTAGTGCAG | 8190 fluorescence intensity (a.u.)
TTTTTTCTTTTTTTTTTTGTTTTTTCTCGCCTTTTTTTCCCGGAGTCACCTAGTGCAG | 11900 fluorescence intensity (a.u.)
AGGGTTTGATGGGAGATGGATGTGTGGTGATGGCCTAGGACGGAGTCACCTAGTGCAG | 8180 fluorescence intensity (a.u.)
GTCATTTTAGCACTTCCCATGTTTATATTAATATTAATGACGGAGTCACCTAGTGCAG | 10500 fluorescence intensity (a.u.)
CTATTCGATTCCTAATTACTTTCTTTCTTGCATTATATACCGGAGTCACCTAGTGCAG | 10100 fluorescence intensity (a.u.)
AGCCACCATATCAAGCTGCCACCGTCACCTCCCTTGCCAGCGGAGTCACCTAGTGCAG | 9360 fluorescence intensity (a.u.)
ATTAGTATTTGTTTGTTGGTTGGCACTTACGGAGTTCTACCGGAGTCACCTAGTGCAG | 11000 fluorescence intensity (a.u.)
AGCTGCCAGTAGCTCCCAAAGCATACCCTACATCTGCATTCGGAGTCACCTAGTGCAG | 8240 fluorescence intensity (a.u.)
TCTGTGGGTTAGGGATGGTTATGTCTTATATTTTGGAATGCGGAGTCACCTAGTGCAG | 9480 fluorescence intensity (a.u.)
GTTGTTTCCACGGCCTTTTCTGCTCTTTTTTTCTTCAGCCCGGAGTCACCTAGTGCAG | 10700 fluorescence intensity (a.u.)
TATCTGTGAGAGTGTGACTGTGAATCTGTGATGCTATTTTCGGAGTCACCTAGTGCAG | 8480 fluorescence intensity (a.u.)
AAGTTACTTCCTTTTTGTCTTAAGTTACTTCTATAATATACGGAGTCACCTAGTGCAG | 8490 fluorescence intensity (a.u.)
AATTAAGGGAGGGGATTAACCGGTAATGGTCTTTGGAGCTCGGAGTCACCTAGTGCAG | 10200 fluorescence intensity (a.u.)
GCCGCGTGTTCCTGCCATTTCGGCGTGCTTGATTCCCTCACGGAGTCACCTAGTGCAG | 12800 fluorescence intensity (a.u.)
CAGGGAGGGTTCGTCAGCCTTTACCAAAGGATGGCTTACACGGAGTCACCTAGTGCAG | 8560 fluorescence intensity (a.u.)
CTTTGGTTCGTTTTGTTTTGGATTCGTTCGGATTCCTCTCCGGAGTCACCTAGTGCAG | 12100 fluorescence intensity (a.u.)
TTCTCCTTTCCACACTTGTGCTTCGTGTTCGTCGTGGTCTCGGAGTCACCTAGTGCAG | 8240 fluorescence intensity (a.u.)

Sequence | binding signal
TTTCATTGTTTGGCGCGCGAAATCTCTCTCATGGCGCGCCCGGAGTCACCTAGTGCAG | 9150 fluorescence intensity (a.u.)
ATGGTACAGCCCACTACTAGCTTCAATTCATCTATAGCCACGGAGTCACCTAGTGCAG | 8050 fluorescence intensity (a.u.)
TGAACGCGTTGACCTAAGTCGCCCATTATCAGACCCACTACGGAGTCACCTAGTGCAG | 9990 fluorescence intensity (a.u.)
GGATACATATTTTTATGGTTTGGGGATCTTAGACAGACTCCGGAGTCACCTAGTGCAG | 10600 fluorescence intensity (a.u.)
CCGTTTCGTCGTCCTCCTGATGAGCGGTGGTCCTCGCGCGCGGAGTCACCTAGTGCAG | 8160 fluorescence intensity (a.u.)
GCCACACTCCCTCAGCAACGTGTTCATCTCTGCACCACCACGGAGTCACCTAGTGCAG | 10800 fluorescence intensity (a.u.)
GCGTGGTTGATTTTTAGTCTTGTCGACTTCGACTTTAAGCCGGAGTCACCTAGTGCAG | 9120 fluorescence intensity (a.u.)
CCCGCATCGCCTCCACCACTGCGGCCTTGCACCACCACCGCGGAGTCACCTAGTGCAG | 9440 fluorescence intensity (a.u.)
CTCATTTTCCGCGCGTACGCTTTTCAAACTGCTAAACGGTCGGAGTCACCTAGTGCAG | 10400 fluorescence intensity (a.u.)
AAAGCAGGGGACTGGGTAAGGTGAGTGCGGCGGGTGGGCCCGGAGTCACCTAGTGCAG | 8920 fluorescence intensity (a.u.)
GATCACCCGCCCCAAAACCCTCGCCGTCGCGGCCGCCATGCGGAGTCACCTAGTGCAG | 8560 fluorescence intensity (a.u.)
TTTGTTCTTTGTTGTTCTCTTGTGCACAGGTGAGCAAGAGCGGAGTCACCTAGTGCAG | 8350 fluorescence intensity (a.u.)
CATTCGTAGGAATTTATATACAACGTTTGACCTTTTTCTTCGGAGTCACCTAGTGCAG | 11500 fluorescence intensity (a.u.)
CCCACCGCTGTGTCCTCGATCTTCTCTGTCTGTACTGGTCCGGAGTCACCTAGTGCAG | 9090 fluorescence intensity (a.u.)
TCACCACCAACTTTCATTCAGTACAAACACCATTACTAAACGGAGTCACCTAGTGCAG | 8070 fluorescence intensity (a.u.)
TTGGCGCGCAATGTTGTGCTCTTGAATTATGCTGTCTAAACGGAGTCACCTAGTGCAG | 8050 fluorescence intensity (a.u.)
TTCCTGGTTGTTTTGCTCTTCTTGGTTTTCTTGATTTCTTCGGAGTCACCTAGTGCAG | 9990 fluorescence intensity (a.u.)
CCGTTTATGCTCTTGCTCTTGCTCTCGATCGCTTGTACATCGGAGTCACCTAGTGCAG | 12700 fluorescence intensity (a.u.)
GTCAGCGTACAAGAGTGCAATTAGATCGTGCCATTTCAGCCGGAGTCACCTAGTGCAG | 9030 fluorescence intensity (a.u.)
GCCTCGCCTCGCCGCCGGCGGCCACCGTCTCCGCCGCCTCCGGAGTCACCTAGTGCAG | 8800 fluorescence intensity (a.u.)
TCGCCCATGATCACTTGAAACACCTCCCTTGCTCTTCATGCGGAGTCACCTAGTGCAG | 8360 fluorescence intensity (a.u.)
CTAATTGGACATATGACTATTTTTGTTCAAACTATATTTCCGGAGTCACCTAGTGCAG | 8230 fluorescence intensity (a.u.)
GTAGTTTTCATTAATGTTTAATCAGCTCTATATATTTGAACGGAGTCACCTAGTGCAG | 9290 fluorescence intensity (a.u.)
AGATGGCTTCCCTGCAGTGTTTTTTGTTTTTATTTTTACGCGGAGTCACCTAGTGCAG | 9980 fluorescence intensity (a.u.)
GCACATGACTCACACATTTGTGCTCGGGACTATTATATTGCGGAGTCACCTAGTGCAG | 8450 fluorescence intensity (a.u.)
CTCCACCACCTGCGCGCCGCGGCCAGCGCCGCAGTAGACCCGGAGTCACCTAGTGCAG | 9010 fluorescence intensity (a.u.)
TTATGGTTGTTTTCTTCGGTTCTTTGTTTTTTTAAAAAAACGGAGTCACCTAGTGCAG | 11600 fluorescence intensity (a.u.)

17 neighbouring entries already listed:
Sequence | binding signal
GATCACCCGCCCCAAAACCCTCGCCGTCGCGGCCGCCATGCGGAGTCACCTAGTGCAG | 8560 fluorescence intensity (a.u.)
TTTGTTCTTTGTTGTTCTCTTGTGCACAGGTGAGCAAGAGCGGAGTCACCTAGTGCAG | 8350 fluorescence intensity (a.u.)
CATTCGTAGGAATTTATATACAACGTTTGACCTTTTTCTTCGGAGTCACCTAGTGCAG | 11500 fluorescence intensity (a.u.)
CCCACCGCTGTGTCCTCGATCTTCTCTGTCTGTACTGGTCCGGAGTCACCTAGTGCAG | 9090 fluorescence intensity (a.u.)
TCACCACCAACTTTCATTCAGTACAAACACCATTACTAAACGGAGTCACCTAGTGCAG | 8070 fluorescence intensity (a.u.)
TTGGCGCGCAATGTTGTGCTCTTGAATTATGCTGTCTAAACGGAGTCACCTAGTGCAG | 8050 fluorescence intensity (a.u.)
TTCCTGGTTGTTTTGCTCTTCTTGGTTTTCTTGATTTCTTCGGAGTCACCTAGTGCAG | 9990 fluorescence intensity (a.u.)
CCGTTTATGCTCTTGCTCTTGCTCTCGATCGCTTGTACATCGGAGTCACCTAGTGCAG | 12700 fluorescence intensity (a.u.)
GTCAGCGTACAAGAGTGCAATTAGATCGTGCCATTTCAGCCGGAGTCACCTAGTGCAG | 9030 fluorescence intensity (a.u.)
GCCTCGCCTCGCCGCCGGCGGCCACCGTCTCCGCCGCCTCCGGAGTCACCTAGTGCAG | 8800 fluorescence intensity (a.u.)
TCGCCCATGATCACTTGAAACACCTCCCTTGCTCTTCATGCGGAGTCACCTAGTGCAG | 8360 fluorescence intensity (a.u.)
CTAATTGGACATATGACTATTTTTGTTCAAACTATATTTCCGGAGTCACCTAGTGCAG | 8230 fluorescence intensity (a.u.)
GTAGTTTTCATTAATGTTTAATCAGCTCTATATATTTGAACGGAGTCACCTAGTGCAG | 9290 fluorescence intensity (a.u.)
AGATGGCTTCCCTGCAGTGTTTTTTGTTTTTATTTTTACGCGGAGTCACCTAGTGCAG | 9980 fluorescence intensity (a.u.)
GCACATGACTCACACATTTGTGCTCGGGACTATTATATTGCGGAGTCACCTAGTGCAG | 8450 fluorescence intensity (a.u.)
CTCCACCACCTGCGCGCCGCGGCCAGCGCCGCAGTAGACCCGGAGTCACCTAGTGCAG | 9010 fluorescence intensity (a.u.)
TTATGGTTGTTTTCTTCGGTTCTTTGTTTTTTTAAAAAAACGGAGTCACCTAGTGCAG | 11600 fluorescence intensity (a.u.)

— article PMC7819943, “Rice protein-binding microarrays: a tool to detect cis-acting elements near promoter regions in rice”
